Our source for the binding values is article doi:10.1101/2025.01.09.632087.

Protein sequences, listed by entry. Tags and fused reporters are not part of them. Residues count along the entry.
UniProt P11021, residues 19-654: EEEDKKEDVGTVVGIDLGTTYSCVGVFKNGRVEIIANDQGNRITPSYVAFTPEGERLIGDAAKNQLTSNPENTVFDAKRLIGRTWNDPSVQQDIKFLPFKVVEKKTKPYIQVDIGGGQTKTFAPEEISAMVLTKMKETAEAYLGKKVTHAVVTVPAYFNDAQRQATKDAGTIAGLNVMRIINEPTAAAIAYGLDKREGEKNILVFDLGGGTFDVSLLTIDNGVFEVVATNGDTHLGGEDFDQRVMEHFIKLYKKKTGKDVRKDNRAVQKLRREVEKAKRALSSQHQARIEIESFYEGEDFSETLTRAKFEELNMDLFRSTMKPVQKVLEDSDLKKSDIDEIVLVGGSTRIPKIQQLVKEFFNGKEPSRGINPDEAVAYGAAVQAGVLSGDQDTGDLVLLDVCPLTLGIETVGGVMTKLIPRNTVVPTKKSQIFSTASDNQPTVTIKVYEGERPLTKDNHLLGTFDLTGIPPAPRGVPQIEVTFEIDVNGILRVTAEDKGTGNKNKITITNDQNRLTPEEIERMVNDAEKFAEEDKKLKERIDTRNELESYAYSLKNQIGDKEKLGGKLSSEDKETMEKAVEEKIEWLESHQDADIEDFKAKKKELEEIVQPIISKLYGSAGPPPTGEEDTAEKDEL

No constants are given. Whether binding was seen depends on the method and setting. Binding seen in cells or lysates may run through a third protein. A yes stands for co-enrichment or nearness to the bait. Other partners may have been found. Sequences can lack the tags named with a protein.

Experiment [1] concerns the target T1, wt FICD with a C-terminal FLAG(3x)-tag (FICD-FLAG) (human) (UniProt Q9BVA6).
T1 sequence: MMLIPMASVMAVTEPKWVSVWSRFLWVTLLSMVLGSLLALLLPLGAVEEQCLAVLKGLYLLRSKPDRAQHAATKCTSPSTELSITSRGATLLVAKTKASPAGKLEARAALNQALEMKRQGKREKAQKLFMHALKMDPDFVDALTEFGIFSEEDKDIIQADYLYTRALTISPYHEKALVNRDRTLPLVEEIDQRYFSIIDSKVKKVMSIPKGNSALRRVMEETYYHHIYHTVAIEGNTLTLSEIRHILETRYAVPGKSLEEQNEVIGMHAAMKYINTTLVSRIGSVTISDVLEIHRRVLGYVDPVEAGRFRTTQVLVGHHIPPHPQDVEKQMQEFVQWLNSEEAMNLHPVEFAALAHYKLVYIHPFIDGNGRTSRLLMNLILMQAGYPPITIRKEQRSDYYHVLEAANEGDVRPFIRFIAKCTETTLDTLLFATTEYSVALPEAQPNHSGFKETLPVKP
The experiment can be described thus: affinity purification with mass spectrometry.

Experiment [2] concerns the target T2, full-length PLD3 with a C-terminal 3xFLAG-tag (PLD3-FLAG) (human) (UniProt Q8IV08).
T2 sequence: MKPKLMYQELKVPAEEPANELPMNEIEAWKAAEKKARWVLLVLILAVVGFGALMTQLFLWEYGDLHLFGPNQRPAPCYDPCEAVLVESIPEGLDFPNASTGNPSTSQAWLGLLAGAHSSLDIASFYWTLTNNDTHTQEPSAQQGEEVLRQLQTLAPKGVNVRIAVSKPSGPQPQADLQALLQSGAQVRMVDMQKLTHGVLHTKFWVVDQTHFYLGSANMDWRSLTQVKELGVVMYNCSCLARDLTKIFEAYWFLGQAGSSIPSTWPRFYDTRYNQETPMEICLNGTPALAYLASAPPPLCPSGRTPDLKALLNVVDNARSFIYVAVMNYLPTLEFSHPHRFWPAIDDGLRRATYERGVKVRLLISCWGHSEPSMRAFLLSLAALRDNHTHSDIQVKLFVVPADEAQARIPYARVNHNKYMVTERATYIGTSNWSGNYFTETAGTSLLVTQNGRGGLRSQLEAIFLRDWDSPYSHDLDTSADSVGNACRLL
The experiment can be described thus: affinity purification with mass spectrometry.

Take “heat shock protein family A member 5 (HSPA5) (from UniProt P11021 19-654)”: the binding result in experiment [1] and in experiment [2] was “binds” throughout.

B1: wt FICD (protein adenylyltransferase FICD, without affinity tag) (enzyme, UniProt Q9BVA6 1-458)
chain: MMLIPMASVMAVTEPKWVSVWSRFLWVTLLSMVLGSLLALLLPLGAVEEQCLAVLKGLYLLRSKPDRAQHAATKCTSPSTELSITSRGATLLVAKTKASPAGKLEARAALNQALEMKRQGKREKAQKLFMHALKMDPDFVDALTEFGIFSEEDKDIIQADYLYTRALTISPYHEKALVNRDRTLPLVEEIDQRYFSIIDSKVKKVMSIPKGNSALRRVMEETYYHHIYHTVAIEGNTLTLSEIRHILETRYAVPGKSLEEQNEVIGMHAAMKYINTTLVSRIGSVTISDVLEIHRRVLGYVDPVEAGRFRTTQVLVGHHIPPHPQDVEKQMQEFVQWLNSEEAMNLHPVEFAALAHYKLVYIHPFIDGNGRTSRLLMNLILMQAGYPPITIRKEQRSDYYHVLEAANEGDVRPFIRFIAKCTETTLDTLLFATTEYSVALPEAQPNHSGFKETLPVKP
With B1, the binding entry in experiment [2] is “binds”.

B2: wt PLD3 (without an affinity tag) (enzyme, UniProt Q8IV08 1-490)
chain: MKPKLMYQELKVPAEEPANELPMNEIEAWKAAEKKARWVLLVLILAVVGFGALMTQLFLWEYGDLHLFGPNQRPAPCYDPCEAVLVESIPEGLDFPNASTGNPSTSQAWLGLLAGAHSSLDIASFYWTLTNNDTHTQEPSAQQGEEVLRQLQTLAPKGVNVRIAVSKPSGPQPQADLQALLQSGAQVRMVDMQKLTHGVLHTKFWVVDQTHFYLGSANMDWRSLTQVKELGVVMYNCSCLARDLTKIFEAYWFLGQAGSSIPSTWPRFYDTRYNQETPMEICLNGTPALAYLASAPPPLCPSGRTPDLKALLNVVDNARSFIYVAVMNYLPTLEFSHPHRFWPAIDDGLRRATYERGVKVRLLISCWGHSEPSMRAFLLSLAALRDNHTHSDIQVKLFVVPADEAQARIPYARVNHNKYMVTERATYIGTSNWSGNYFTETAGTSLLVTQNGRGGLRSQLEAIFLRDWDSPYSHDLDTSADSVGNACRLL
Turning to B2, the binding entry in experiment [1] is listed as “binds”.
